The assay relates to L1210 leukemia ip in BDF1 mice, survival T/C. The assay can be described thus: NCI In Vivo Anticancer Drug Screen. Data for tumor model L1210 Leukemia (intraperitoneal) in B6D2F1 (BDF1) mice. As to conditions: T/C endpoint: mean survival time, higher T/C = longer survival.
Setting [1] is: dose: 200.0 mg/kg/injection, schedule: Q04DX002 (ip), vehicle: saline with Tween-80.
Where [2] appears, read: dose: 400.0 mg/kg/injection, schedule: Q04DX003 (ip), vehicle: saline.
The mark [3] stands for this setting: dose: 400.0 mg/kg/injection, schedule: Q04DX003 (ip), vehicle: Klucel (hydroxypropylcellulose) (HPC).
[4] abbreviates: dose: 400.0 mg/kg/injection, schedule: Q01DX009 (ip), vehicle: Klucel (hydroxypropylcellulose) (HPC).
Where [5] appears, read: dose: 100.0 mg/kg/injection, schedule: Q01DX Z (ip), vehicle: saline.
Setting [6] is: dose: 100.0 mg/kg/injection, schedule: Q04DX003 (ip), vehicle: saline with Tween-80.
The mark [7] stands for this setting: dose: 200.0 mg/kg/injection, schedule: Q04DX003 (ip), vehicle: saline with Tween-80.

The structures appear in SMILES notation. The list does not hold the whole screen: it gathers tests that were run many times, whatever their T/C, doses with no T/C, and many T/C values between a quarter and a half above the control. Further doses and runs are listed elsewhere. T/C is the treated group as % of the vehicle group. Some entries give survivors of the animals treated and no T/C: the source holds a T/C of zero for them, seemingly a mark for toxic or unscored doses. Some doses without a T/C left all or most animals alive at the check, yet need not have been tolerated: survival well below the control is almost never listed, so the zero probably covers shortened survival too. Counts of survivors are from the toxicity check (mostly the fifth day) where no day follows; animals may have died later. Schedule codes are those of the source, taken here to give the interval after Q, in days (D) or hours (H), and the number of doses after X. Some schedule codes hold Z or #, which are not explained here. For survival time, the PubChem record calls one and a half times the control and up active, and a quarter to a half above the control has no call in these data; cut-offs in other NCI protocols can differ. Signs of the kind (2×) count equal records among those shown. Some entries hold several experiments; their values stand side by side, smallest first. Some T/C values are followed by the survivors on the day toxicity was checked, most often the fifth; without a count, all were alive then.

Regarding `C[CH2][Sn]1([CH2]C)[O]OC(c2ccccc2)[O]1` (stereo not given), where the note is “dose: 6.25 mg/kg/injection, schedule: Q01DX009 (ip), vehicle: saline with Tween-80”, the T/C is 125 % of control [9 of 10 alive]. Moreover, the survivor count (dose: 25.0 mg/kg/injection, schedule: Q01DX009 (ip), vehicle: saline with Tween-80) is listed as 5 of 10; the survivor count (dose: 25.0 mg/kg/injection, schedule: Q04DX002 (ip), vehicle: saline with Tween-80) was 0 of 3; the survivor count (dose: 100.0 mg/kg/injection, schedule: Q04DX002 (ip), vehicle: saline with Tween-80) was 0 of 3; the survivor count under setting [1] is 0 of 3; the survivor count (dose: 400.0 mg/kg/injection, schedule: Q04DX002 (ip), vehicle: saline with Tween-80) is recorded as 0 of 3.

On to `COC(=O)C(C)CN1CCCCC1` (stereo not given), for which the survivor count under setting [2] was 0 of 6.

With `CN(C)P1(=O)OCCN1N` (stereo not given), the survivor count under setting [2] is on record as 1 of 6.

As for `CC(C)(C)C1CCC(OC=O)CC1` (stereo not given), the survivor count under setting [3] was 3 of 6.

Consider `CN(C)NC(=O)/C=C/c1ccccc1`, for which, under setting [4], the survivor count is on record as 0 of 6.

In the case of `c1ccc(C(CCN2CCCC2)c2ccccn2)cc1` (stereo not given), the survivor count under setting [5] is on record as 0 of 6.

Turning to `N#CC1(C(N)=O)OC1c1ccccc1Cl` (stereo not given), the survivor count (dose: 400.0 mg/kg/injection, schedule: Q04DX003 (ip), vehicle: carboxymethylcellulose (CMC)) is 1 of 6.

Consider `O=C(O)c1cc(Cl)ccc1O`, for which, under “dose: 400.0 mg/kg/injection, schedule: Q04DX002 (ip), vehicle: other”, the survivor count was 3 of 3.

Consider `COC1OC(COC(=O)c2ccc([N+](=O)[O-])cc2)C(OC(=O)c2ccc([N+](=O)[O-])cc2)C1OCc1ccccc1` (stereo not given), for which the survivor count runs as follows: (dose: 75.0 mg/kg/injection, schedule: Q01DX001 (ip), vehicle: other) 6 of 6; (dose: 150.0 mg/kg/injection, schedule: Q01DX001 (ip), vehicle: other) 6 of 6.

`CCCCSCc1nc2nc(Cl)c(Cl)nc2[nH]1`: under “dose: 200.0 mg/kg/injection, schedule: Q01DX009 (ip), vehicle: saline with Tween-80”, the survivor count is given as 3 of 6.

Turning to `CCOC(=O)c1[nH]c2ccsc2c1CN1CCCCC1`, the survivor count (dose: 200.0 mg/kg/injection, schedule: Q01DX001 (ip), vehicle: Klucel (hydroxypropylcellulose) (HPC)) is listed as 2 of 6.

As for `O[C@H](c1cc(C(F)(F)F)nc2c(C(F)(F)F)cccc12)[C@@H]1CCCCN1`, the survivor count is 3 of 6 (dose: 50.0 mg/kg/injection, schedule: Q01DX009 (ip), vehicle: Klucel (hydroxypropylcellulose) (HPC)); 2 of 6 (dose: 100.0 mg/kg/injection, schedule: Q04DX003 (ip), vehicle: Klucel (hydroxypropylcellulose) (HPC)); 1 of 6 (dose: 200.0 mg/kg/injection, schedule: Q04DX003 (ip), vehicle: Klucel (hydroxypropylcellulose) (HPC)); 0 of 6 under setting [3].

For the compound `CCCCCCC(=O)N1CC(C)OC(C)C1` (stereo not given), where the note is “dose: 400.0 mg/kg/injection, schedule: Q04DX002 (ip), vehicle: Klucel (hydroxypropylcellulose) (HPC)”, the survivor count is listed as 3 of 3.

On to `OC(CF)C(O)C(O)C(O)CF` (stereo not given), for which, where the note is “dose: 150.0 mg/kg/injection, schedule: Q01DX009 (ip), vehicle: saline”, the survivor count was 6 of 6.

In the case of `Fc1nc(F)nc(F)n1`, the survivor count is 0 of 6 (dose: 100.0 mg/kg/injection, schedule: Q01DX009 (ip), vehicle: Klucel (hydroxypropylcellulose) (HPC)); 0 of 6 (dose: 200.0 mg/kg/injection, schedule: Q01DX009 (ip), vehicle: Klucel (hydroxypropylcellulose) (HPC)); 0 of 6 under setting [4].

As to `CN(C)CCCN1c2ccccc2S(=O)c2ccc(Cl)cc21` (stereo not given), the survivor count under setting [2] is given as 0 of 4.

As for `C#CC(C)OCC(C)OC` (stereo not given), the survivor count (dose: 100.0 mg/kg/injection, schedule: Q01DX009 (ip), vehicle: acetone) is recorded as 3 of 6; the survivor count (dose: 200.0 mg/kg/injection, schedule: Q04DX003 (ip), vehicle: acetone) is 1 of 6; the survivor count (dose: 400.0 mg/kg/injection, schedule: Q04DX003 (ip), vehicle: acetone) is 0 of 6.

For `Nc1nc(=S)c2ncn(C3OC(COC(=O)c4ccc(Cl)cc4)C(OC(=O)c4ccc(Cl)cc4)C3OC(=O)c3ccc(Cl)cc3)c2[nH]1` (stereo not given), the T/C was 130 % of control (dose: 5.3 mg/kg/injection, schedule: Q01DX Z (ip), vehicle: carboxymethylcellulose (CMC)); 139 % of control (dose: 8.0 mg/kg/injection, schedule: Q01DX Z (ip), vehicle: carboxymethylcellulose (CMC)); 128 % of control [6 of 7 alive] (dose: 25.0 mg/kg/injection, schedule: Q01DX Z (ip), vehicle: saline); 139 % of control (dose: 29.0 mg/kg/injection, schedule: Q01DX Z (ip), vehicle: carboxymethylcellulose (CMC)); 139 % of control (2×) (dose: 44.0 mg/kg/injection, schedule: Q01DX Z (ip), vehicle: carboxymethylcellulose (CMC)); 145 % of control (dose: 66.0 mg/kg/injection, schedule: Q01DX Z (ip), vehicle: carboxymethylcellulose (CMC)). Besides, the T/C (dose: 67.0 mg/kg/injection, schedule: Q01DX Z (ip), vehicle: carboxymethylcellulose (CMC)) is 131 and 135 % of control; the T/C (dose: 100.0 mg/kg/injection, schedule: Q01DX Z (ip), vehicle: carboxymethylcellulose (CMC)) is 135 and 142 % of control; the T/C (dose: 150.0 mg/kg/injection, schedule: Q01DX Z (ip), vehicle: carboxymethylcellulose (CMC)) is 133 % of control. Besides, the survivor count runs as follows: under setting [5], 7 of 7; (dose: 200.0 mg/kg/injection, schedule: Q01DX Z (ip), vehicle: saline) 6 of 7.

For `CC1(c2ccncc2)OCCO1`, where the note is “dose: 400.0 mg/kg/injection, schedule: Q01DX001 (ip), vehicle: saline”, the survivor count is 3 of 6.

For the compound `O=C(Nc1ccc(C2=NCCN2)cc1)c1cc(Cl)c(C(=O)Nc2ccc(C3=NCCN3)cc2)cc1Cl`, the T/C (dose: 30.0 mg/kg/injection, schedule: Q01DX Z (ip), vehicle: carboxymethylcellulose (CMC)) is 138 % of control.

Consider `CN1C(=O)C/C(=C/[N+](=O)[O-])c2ccccc21`, for which the survivor count runs as follows: (dose: 200.0 mg/kg/injection, schedule: Q01DX001 (ip), vehicle: carboxymethylcellulose (CMC)) 1 of 4; (dose: 400.0 mg/kg/injection, schedule: Q01DX001 (ip), vehicle: carboxymethylcellulose (CMC)) 0 of 4.

As for `CC(C)CCCC(C)C1CCC2C3CC=C4CC(C5C(=O)NC(=O)NC5=O)CCC4(C)C3CCC12C` (stereo not given), the survivor count by setting is: under setting [6], 6 of 6; under setting [7], 6 of 6.

Take `CC[CH2][Sn]([Cl])([Cl])[CH2]CC.Oc1ccccc1C=NCCN=Cc1ccccc1O`: where the note is “dose: 5.0 mg/kg/injection, schedule: Q01DX009 (ip), vehicle: saline with Tween-80”, the T/C is 141 % of control. Further, the survivor count (dose: 10.0 mg/kg/injection, schedule: Q01DX009 (ip), vehicle: saline with Tween-80) is 3 of 6; the survivor count (dose: 15.0 mg/kg/injection, schedule: Q01DX009 (ip), vehicle: saline with Tween-80) is 2 of 6; the survivor count (dose: 20.0 mg/kg/injection, schedule: Q01DX009 (ip), vehicle: saline with Tween-80) was 0 of 5.

As to `COc1ccc(NC(=O)Nc2ccccc2Cl)c(OC)c1`, the survivor count under setting [1] is 3 of 3.

Turning to `Cc1nsc(N(NC(=O)c2ccccc2)C(=O)c2ccccc2)n1`, the survivor count (dose: 150.0 mg/kg/injection, schedule: Q01DX001 (ip), vehicle: carboxymethylcellulose (CMC)) was 1 of 6 and the survivor count (dose: 300.0 mg/kg/injection, schedule: Q01DX001 (ip), vehicle: carboxymethylcellulose (CMC)) was 0 of 6.

On to `O=C1CCCC/C1=N/Nc1ccccc1`, for which the survivor count is 0 of 6 under setting [6]; 0 of 6 under setting [7]; 0 of 6 (dose: 400.0 mg/kg/injection, schedule: Q04DX003 (ip), vehicle: saline with Tween-80).

On to `NC(=S)NN=C1CCCCCCC1`, for which the survivor count is, setting by setting: (dose: 14.0 mg/kg/injection, schedule: Q01DX Z (ip), vehicle: methylcellulose (MC)) 3 of 7; (dose: 65.0 mg/kg/injection, schedule: Q01DX Z (ip), vehicle: methylcellulose (MC)) 0 of 7; (dose: 108.0 mg/kg/injection, schedule: Q01DX Z (ip), vehicle: methylcellulose (MC)) 0 of 7.

For the origin of these results see PubChem BioAssay AID248 (DTP/NCI, 2004).
